From PubChem BioAssay AID445 (National Center for Advancing Translational Sciences (NCATS), 2006) come the findings set out here.

SMILES strings stand for the structures. The list shows a part of the results. Further columns of the screen follow, without active or inactive calls. Most of these compounds were active or inconclusive in the main read-out, so they are no random draw. The note in brackets gives the kind of curve behind each potency; many fits are weak.

This assay can be described thus: IkB Signaling. The note with it: ABC-DLBCL IkBa-CBG/CBR dual luciferase ratio (green luciferase fused to IkBa over red control in OCI-Ly3 lymphoma cells), 4 h; measured here: control luc red channel unless noted. In outline:
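Luminescence ratio of IκBα-fused green versus native red beetle luciferase in OCI-Ly3 cells, 4 h post-doxycycline with compound; red signal alone, scaled from basal (0%) to zero light (-100%), flagged nonspecific or cytotoxic effects.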
The AC50 is the midpoint of the concentration-response curve, whichever way the signal moves. Regarding `COc1ccc(CCNC(=O)CCc2c(C)nc3c(c(C)nn3-c3ccc(C)c(C)c3)c2C)cc1OC`, the AC50 was 12.6 µM [falling, single point].
Turning to `Cc1cc(C(=O)COc2ccc(-c3nnco3)cc2)c(C)n1Cc1ccccc1`, the AC50 was 20 µM [falling, partial curve].
On to `COc1ccccc1OCCSc1nc(-c2ccc(C(C)(C)C)cc2)nc2cc(=O)[nH]n12`, for which the half-maximal activity concentration (AC50) is 39.8 µM [falling, single point].
Under `COCCNC(=O)C(C#N)c1nc2ccccc2nc1N1CCCCCC1` (configuration not stated) stands 7.94 µM [falling, partial curve]; under `Cc1ccc2c(c1)nnn2C1CCN(S(=O)(=O)c2ccc(C(=O)N3CC(C)CC(C)C3)cc2)CC1` (configuration not stated), 12.6 µM [falling, partial curve]; under `Nc1nnc(SCC(=O)Nc2ccc(Cl)cc2)s1`, 0.794 µM [rising, single point].
As for `Cc1cc(Cl)ccc1NC(=O)c1cccc(NC(=O)N2CCSc3ncccc32)c1`, the AC50 is 12.6 µM [falling, partial curve].
As for `O=C(CSC1=Nc2ccccc2C2=NC(CCC(=O)NC3CCCCC3)C(=O)N12)Nc1cccc(C(F)(F)F)c1` (configuration not stated), the AC50 is 12.6 µM [falling, partial curve].
For `CCn1c(COc2ccccc2)nnc1SCC(=O)CC(=O)Nc1ccccc1OC`, the AC50 is 12.6 µM [falling, partial curve].
For the compound `CCOC(=O)CCc1c(C)nc2cc(-c3cc(OC)cc(OC)c3)[nH]n2c1=O`, the AC50 is 3.16 µM [falling, partial curve].
Regarding `O=C(O)C1CCN(C(=O)COc2ccc3c4c(c(=O)oc3c2)CCC4)CC1`, the concentration at half-maximal activity (AC50) was 12.6 µM [falling, partial curve].
Consider `COc1cc(NC(=O)c2cc(-c3cccc(OC)c3)n[nH]2)cc(OC)c1`, for which the AC50 was 0.398 µM [falling, partial curve].
The value for `Cc1nc2ccc(S(=O)(=O)N(CC(=O)Nc3ccc(F)cc3)Cc3ccccc3)cc2s1` was 12.6 µM [falling, partial curve]; that for `c1ccc(-c2nc(-c3ccco3)cs2)nc1` was 2.51 µM [rising, partial curve].
As to `CC1CCc2c(sc(NC(=O)CCCOc3ccccc3)c2C(N)=O)C1` (configuration not stated), the concentration at half-maximal activity (AC50) is 20 µM [falling, partial curve].
Consider `COC(=O)CCn1nnc(-c2ccc(C(C)C)cc2)n1`, for which the AC50 is 0.794 µM [falling, full curve].
Consider `Cc1cc(NC(=O)CCCC(=O)N(CC(=O)NC2CCCCC2)c2ccccc2)no1`, for which the AC50 was 25.1 µM [falling, partial curve].
In the case of `CCOC(=O)c1cnc2c(Cl)cc(Cl)cc2c1Nc1ccccc1OC`, the AC50 is 20 µM [falling, partial curve].
In the case of `COc1ccc(-c2cn3c(C)c(C(=O)Nc4cc(C)cc(C)c4)sc3n2)cc1`, the AC50 was 6.31 µM [falling, full curve].
Under `COC(=O)c1ccc(Cn2nnc3c(=O)[nH]c(C4CCCN(S(=O)(=O)c5ccccc5Cl)C4)nc32)cc1` (configuration not stated) stands 39.8 µM [falling, single point]; under `CCCSc1ncc(Cl)c(C(=O)N(Cc2ccc(Cl)cc2)Cc2ccco2)n1`, 12.6 µM [falling, partial curve]; under `CCCOC(=O)c1ccc(Oc2cn[nH]c2-c2ccc(OC)cc2O)cc1`, 25.1 µM [falling, partial curve].
Under `Cc1ccccc1OCC(=O)N1CCC(c2nc3ccccc3s2)CC1` stands 3.16 µM [rising, single point].
Turning to `Cc1ccc(NC(=O)Cn2nc(N3CCN(c4ccccc4)CC3)ccc2=O)cc1F`, the half-maximal activity concentration (AC50) is 25.1 µM [falling, partial curve].
Under `CCC1CCCCN1S(=O)(=O)c1cc2c3c(c1)CC(=O)N3CCC2` (configuration not stated) stands 5.01 µM [falling, single point]; under `COc1ccc(S(=O)(=O)N2Cc3ccccc3CC2C(=O)Nc2ccc(C)cc2C)cc1OC` (configuration not stated), 20 µM [falling, partial curve]; under `COc1ccc(CNC(=O)c2cc3c(C)nc4ccccc4c3o2)c(OC)c1`, 39.8 µM [rising, single point] [measured here: IkB-luc green channel].
Regarding `CCOC(=O)c1c(C)oc2ncnc(Nc3cc(C)cc(C)c3)c12`, the half-maximal activity concentration (AC50) was 3.98 µM [rising, single point].
With `CCC1=C(c2ccc(C)cc2)S(=O)(=O)N=C1N1CCC(C(=O)NCc2ccc(N(C)C)cc2)CC1`, the AC50 was 15.8 µM [falling, partial curve].
With `COc1ccc(CNC(=O)c2cnn3c(C)c(Cc4c(F)cccc4Cl)c(C)nc23)cc1`, the concentration at half-maximal activity (AC50) was 39.8 µM [falling, single point].
`Cc1cccc(N2CCN(C(=O)c3cnc(N4CCCC4)nc3C)CC2)c1C`: the AC50 was 31.6 µM [falling, single point].
On to `CCCCOc1ccc(C(=O)NCc2nnnn2-c2ccc(C)c(C)c2)cc1`, for which the concentration at half-maximal activity (AC50) is 25.1 µM [falling, partial curve].
`COc1ccccc1NC(=O)CC1C(=O)NCCN1C(=O)Nc1ccc(Cl)c(Cl)c1` (configuration not stated): the concentration at half-maximal activity (AC50) is 31.6 µM [falling, single point].
For `COC(=O)c1c(NC(=O)/C(C#N)=C/c2ccccc2)sc2c1C(C(=O)OC)CC2` (configuration not stated), the AC50 was 0.398 µM [falling, partial curve].
Turning to `CCOc1ccccc1CNC(=O)c1oc2c(c1C)-c1nn(Cc3cccc(Cl)c3)cc1CC2`, the half-maximal activity concentration (AC50) is 20 µM [falling, partial curve].
Under `Cc1cccc(C(=O)NCc2nc3ccccc3n2Cc2ccccc2Cl)c1` stands 25.1 µM [falling, partial curve].
On to `COc1cccc(OCc2nnc(SCC(=O)NCc3ccco3)n2CCc2ccccc2)c1`, for which the AC50 is 12.6 µM [falling, partial curve].
Consider `Cc1ccc(NC(=O)C2CCCN2S(=O)(=O)c2cccc3cccnc23)c(C)c1` (configuration not stated), for which the half-maximal activity concentration (AC50) was 2 µM [rising, partial curve].
As for `O=C(Nc1cccc(OCc2cc(=O)n3ccccc3n2)c1)Nc1cccc(C(F)(F)F)c1`, the AC50 is 0.316 µM [falling, full curve].
Consider `COc1cccc(NC(=O)Cn2c(=O)n(Cc3ccc(C(=O)NCc4ccc(C)cc4)cc3)c(=O)c3ccccc32)c1`, for which the AC50 was 0.316 µM [falling, single point].
In the case of `CCOC(=O)c1c(C)n(-c2ccccc2)c2ccc(OC(=O)c3c(F)cccc3F)cc12`, the half-maximal activity concentration (AC50) was 10 µM [rising, partial curve].
For `CCOc1ccc(Cn2c(CNS(=O)(=O)c3ccc(C(C)(C)C)cc3)nc3cccnc32)cc1`, the half-maximal activity concentration (AC50) is 39.8 µM [falling, single point].
In the case of `CCOc1ccc(CNC(=O)C2=Cc3cccc(OC)c3OC2)cc1`, the half-maximal activity concentration (AC50) is 12.6 µM [falling, partial curve].
For the compound `O=C(Cc1nc2ccccc2s1)c1ccc(O)cc1O`, the AC50 was 20 µM [falling, partial curve].
Turning to `COc1ccc(OC)c(CC2C(=O)Nc3ccc(Br)cc32)c1` (configuration not stated), the half-maximal activity concentration (AC50) is 31.6 µM [falling, partial curve].
For `Cc1cc(F)ccc1S(=O)(=O)Nc1cc2c(C(=O)O)c(C)oc2c2ccccc12`, the half-maximal activity concentration (AC50) is 5.01 µM [falling, full curve].
On to `Cc1cc(N2CCN(c3cc(Cl)ccc3C)CC2)n2nc(-c3ccccc3)nc2n1`, for which the half-maximal activity concentration (AC50) is 31.6 µM [falling, partial curve].
Turning to `O=C(NCc1ccco1)c1cnn2c1NC(c1ccc(Br)cc1)CC2C(F)(F)F` (configuration not stated), the AC50 is 10 µM [falling, partial curve, poor fit].
In the case of `N#Cc1ccc(NC(=O)C2Cc3ccccc3CN2S(=O)(=O)c2ccc(F)cc2)cc1` (configuration not stated), the concentration at half-maximal activity (AC50) is 20 µM [falling, partial curve].
For `O=C(Nc1ccccc1C(=O)OCc1cc(=O)n2ccsc2n1)c1ccccc1Cl`, the AC50 was 12.6 µM [falling, partial curve].
The value for `CCC(=O)N1CCc2cc(Br)cc(S(=O)(=O)N3CCN(c4cc(C)ccc4C)CC3)c21` was 5.01 µM [rising, full curve, poor fit]; that for `COc1cc(-c2cc3n(C)c(C)c(CCC(=O)NC4CCCCC4)c(=O)n3n2)cc(OC)c1OC` was 15.8 µM [falling, partial curve].
`COc1ccc(Oc2nc3c(c(=O)n(C)c(=O)n3C)n2Cc2ccc(Cl)cc2Cl)cc1`: the half-maximal activity concentration (AC50) was 0.631 µM [falling, full curve, poor fit].
Under `CCOC12NC(=O)CC(=O)N1C(c1ccccc1)=CS2` (configuration not stated) stands 12.6 µM [falling, partial curve]; under `OCCN1CCN(c2ncnc3c2sc2nc(N4CCOCC4)c4c(c23)CCC4)CC1`, 12.6 µM [falling, partial curve].
Regarding `CCOC(=O)c1cnc2ccc(OC)cc2c1Nc1cccc(C(C)=O)c1`, the half-maximal activity concentration (AC50) is 31.6 µM [falling, single point].
`CC1(C)C(=O)Nc2ccccc2N1C(=O)COc1ccc(S(=O)(=O)N2CCOCC2)cc1Cl`: the concentration at half-maximal activity (AC50) is 25.1 µM [falling, partial curve].
For `O=C(CN1C(=O)C2(SCC(=O)N2c2ccc(F)c(F)c2)c2ccccc21)Nc1cccc(Cl)c1` (configuration not stated), the concentration at half-maximal activity (AC50) was 20 µM [falling, partial curve].
For `Cc1ccccc1OCC(=O)Nc1ccc2nc(SCC(=O)N3CCOCC3)sc2c1`, the AC50 was 5.01 µM [falling, partial curve].
On to `Cc1ccc2[nH]c(=O)c(CN(CCc3ccccc3)C(c3nnnn3Cc3ccco3)C(C)C)cc2c1` (configuration not stated), for which the concentration at half-maximal activity (AC50) was 7.94 µM [falling, partial curve].
With `CCOc1cc(CNc2ccc(O)cc2)cc(Cl)c1OCc1ccccc1`, the AC50 was 20 µM [falling, partial curve].
On to `Cn1nc(-c2ccccc2F)c2cc(C(=O)N3CCN(c4ccccc4F)CC3)sc21`, for which the AC50 is 10 µM [falling, partial curve].
